Measurements taken from the supplement of paper PMC3682954.
“And” between values parts separate entries of the source, which are not always exact repeats. Identical values can stand only once. Counter-ions that a name gives are not always drawn. ± gives the standard deviation of the averaged measurements. Some of the results follow. Single values are uncertain, as repeats are few or missing.

Tested on: RAW 264.7
Assay: HMGB1-induced TNF-alpha production relative to HMGB1-stimulated control; higher = more TNF-alpha secretion (less inhibition)
Settings: stimulus: HMGB1 5 ug/ml, 18 h
[1] = compound concentration: 1 ug/ml

| SMILES | HMGB1-induced TNF-alpha production (compound concentration: 3 uM) | HMGB1-induced TNF-alpha production [1] |
| --- | --- | --- |
| COc1ccc2[nH]c3c(c2c1)CCNC3 [6-Methoxy-1,2,3,4-tetrahydro-9H-pyrido[3,4b] indole] | 93.3% |  |
| Cc1cccc(C)c1NC(=O)CN1CCCC1=O [Nefiracetam] | 84.1% |  |
| CS(=O)(=O)Nc1ccc(Cc2noc(-c3ccc4[nH]cc(CCN)c4c3)n2)cc1 | 109% |  |
| NC(=O)CI [Iodoacetamide] | 69.3% |  |
| C[C@]12CCC(=O)C=C1C=C[C@@H]1[C@@H]2CC[C@@]2(C)[C@H]1CC[C@@]2(O)CCC(=O)O | 89.8% |  |
| C[C@]12CCC(=O)C=C1C=C[C@@H]1[C@@H]2CC[C@@]2(C)[C@H]1CC[C@@]2(O)CCC(=O)O [Canrenoic acid potassium salt] | 67.5% |  |
| S=C=NCc1ccccc1 | 29.4 ± 17% |  |
| COP(=O)(OC)OC=C(Cl)Cl | 85 ± 6.2% |  |
| CN1CC[C@]2(CCN3CCc4c(oc5ccccc45)[C@@H]3C2)N(C)C1=O | 109% |  |
| N#CC(C#N)=Cc1ccc(O)c(O)c1 [Tyrphostin 23] | 105% |  |
| CC(C)[C@H]1C(=O)N2CCC[C@H]2[C@]2(O)O[C@](NC(=O)[C@@H]3C=C4c5cccc6[nH]cc(c56)C[C@H]4N(C)C3)(C(C)C)C(=O)N12 [Ergocornine] |  | 54.2% |
| CC(=O)N1C[C@@H]2C[C@H](C1)c1cccc(=O)n1C2 |  | 77.9% |
| NC1=NC(=O)C(c2ccccc2)O1 (centres undefined) [Pemoline] | 98% |  |
| CCOC(=O)C1(c2ccccc2)CCN(CCC(C#N)(c2ccccc2)c2ccccc2)CC1 | 93.3% |  |
| CC[C@@H]1C=CC=CC[C@H](C)[C@@H](O)[C@@H](C)C(=O)[C@H](C)[C@@H](O)[C@H](C)C(=O)[C@H](C)[C@@H](O)[C@H](C)C=CC(=O)O[C@H]2[C@@H](C)[C@@H](CC1)O[C@@]1(CC[C@@H](C)[C@@H](C[C@H](C)O)O1)[C@@H]2C | 93.2% |  |
| CC(=O)[C@H]1CC[C@H]2[C@@H]3CC[C@H]4C[C@](C)(O)CC[C@]4(C)[C@H]3CC[C@]12C [Ganaxolone] | 82.9% |  |
| CN1[C@@H]2C[C@@H](OC(=O)[C@H](CO)c3ccccc3)C[C@H]1[C@@H]1O[C@@H]12 [Scopolamine] | 97.5% |  |
| CN1[C@@H]2C[C@@H](OC(=O)[C@H](CO)c3ccccc3)C[C@H]1[C@@H]1O[C@@H]12 | 94.2% |  |
| CN1[C@@H]2C[C@@H](OC(=O)[C@H](CO)c3ccccc3)C[C@H]1[C@@H]1O[C@@H]12 [(-)-Scopolamine hydrobromide] | 110% |  |
| CN1[C@@H]2C[C@@H](OC(=O)[C@H](CO)c3ccccc3)C[C@H]1[C@@H]1O[C@@H]12 [Scopolamine hydrochloride] | 112% |  |
| C#C[C@]1(O)CC[C@H]2[C@@H]3CCC4=CC(=O)CCC4=C3C=C[C@@]21CC [Gestrinone] | 104 ± 8.2% |  |
| CN[C@@H](C)[C@@H](O)c1ccccc1 | 87% |  |
| [O-][n+]1ccccc1[S-].[O-][n+]1ccccc1[S-].[Zn+2] | 95.8% |  |

| SMILES | HMGB1-induced TNF-alpha production (compound concentration: 3 uM) | HMGB1-induced TNF-alpha production [1] |
| --- | --- | --- |
| CN1C[C@H](C(=O)N[C@]2(C)O[C@@]3(O)[C@@H]4CCCN4C(=O)[C@H](Cc4ccccc4)N3C2=O)C=C2c3cccc4[nH]cc(c34)C[C@H]21 | 82.9% |  |
| CN1C[C@H](C(=O)N[C@]2(C)O[C@@]3(O)[C@@H]4CCCN4C(=O)[C@H](Cc4ccccc4)N3C2=O)C=C2c3cccc4[nH]cc(c34)C[C@H]21 [Ergotamine] | 87.6% |  |
| NCC(CC(=O)O)c1ccc(Cl)cc1 (racemic) [(±)-Baclofen] | 68.5% |  |
| NCC(CC(=O)O)c1ccc(Cl)cc1 (racemic) [Baclofen (R,S)] | 91.1% |  |
| N[C@@H]1C[C@H]1c1ccccc1 [Tranylcypromine hydrochloride] | 102 ± 3.4% |  |
| CCCCCCC1C(=O)OC(C)C(NC(=O)c2cccc(NC=O)c2O)C(=O)OC(C)C1OC(=O)CC(C)C (centres undefined) [Animicin A] |  | 79.7% |
| O=C1CC[C@@]2(O)[C@H]3Cc4ccc(O)c5c4[C@@]2(CCN3CC2CC2)[C@H]1O5 [Naltrexone] | 127% |  |
| O=C1CC[C@@]2(O)[C@H]3Cc4ccc(O)c5c4[C@@]2(CCN3CC2CC2)[C@H]1O5 [Naltrexone hydrochloride dihydrate] | 74% |  |
| O=C1CC[C@@]2(O)[C@H]3Cc4ccc(O)c5c4[C@@]2(CCN3CC2CC2)[C@H]1O5 | 93.3% |  |
| O=C1CC[C@@]2(O)[C@H]3Cc4ccc(O)c5c4[C@@]2(CCN3CC2CC2)[C@H]1O5 [Naltrexone hydrochloride] | 125% |  |
| NC(=O)c1cc([N+](=O)[O-])cc([N+](=O)[O-])c1 | 89.5 ± 8.3% |  |
| O=C1Nc2ccc(Cl)cc2C(c2ccccc2Cl)=NC1O (centres undefined) [Lorazepam] | 49.9% |  |
| CN1CCc2cc(O)cc3c2[C@H]1Cc1ccc(O)c(O)c1-3 [R(-)-2,10,11-Trihydroxyaporphine hybrobromide] | 76.3% |  |
| CN[C@@H]1[C@@H](O)[C@@H](O[C@@H]2[C@@H](O)[C@H](O[C@H]3O[C@H](CN)CC[C@H]3N)[C@@H](N)C[C@H]2N)OC[C@]1(C)O.CN[C@@H]1[C@@H](O)[C@@H](O[C@@H]2[C@@H](O)[C@H](O[C@H]3O[C@H]([C@@H](C)N)CC[C@H]3N)[C@@H](N)C[C@H]2N)OC[C@]1(C)O.CN[C@@H]1[C@@H](O)[C@@H](O[C@@H]2[C@@H](O)[C@H](O[C@H]3O[C@H]([C@@H](C)NC)CC[C@H]3N)[C@@H](N)C[C@H]2N)OC[C@]1(C)O | 82.3% |  |
| CN[C@@H]1[C@@H](O)[C@@H](O[C@@H]2[C@@H](O)[C@H](O[C@H]3O[C@H](CN)CC[C@H]3N)[C@@H](N)C[C@H]2N)OC[C@]1(C)O.CN[C@@H]1[C@@H](O)[C@@H](O[C@@H]2[C@@H](O)[C@H](O[C@H]3O[C@H]([C@@H](C)N)CC[C@H]3N)[C@@H](N)C[C@H]2N)OC[C@]1(C)O.CN[C@@H]1[C@@H](O)[C@@H](O[C@@H]2[C@@H](O)[C@H](O[C@H]3O[C@H]([C@@H](C)NC)CC[C@H]3N)[C@@H](N)C[C@H]2N)OC[C@]1(C)O [Gentamicine sulfate] | 95.1% |  |
| Cn1c(CCCC(=O)O)nc2cc(N(CCCl)CCCl)ccc21 [Bendamustine hydrochloride] | 101% |  |
| CN(C)Cc1c[nH]c2c(OCc3ccccc3)cccc12 [7-Benzyloxygramine] |  | 104% |
| Oc1ccc2c3c1O[C@H]1c4[nH]c5ccccc5c4C[C@@]4(O)[C@@H](C2)N(CC2CC2)CC[C@]314 [Naltrindole hydrochloride] | 113% |  |
| Oc1ccc2c3c1O[C@H]1c4[nH]c5ccccc5c4C[C@@]4(O)[C@@H](C2)N(CC2CC2)CC[C@]314 [Naltrindole] | 102 ± 6.2% |  |
| O=C(O)CCCO | 90.3% |  |
| N[C@]1(C(=O)O)CC[C@H](C(=O)O)C1 (racemic) [trans-(±)-ACPD] | 87.7% |  |
| CC(NC(C)(C)C)C(=O)c1cccc(Cl)c1 (centres undefined) [Amfebutamone] | 105% |  |
| CC(NC(C)(C)C)C(=O)c1cccc(Cl)c1 (centres undefined) | 98.6% and 95.8% and 75% |  |

| SMILES | HMGB1-induced TNF-alpha production (compound concentration: 3 uM) | HMGB1-induced TNF-alpha production [1] |
| --- | --- | --- |
| CC(NC(C)(C)C)C(=O)c1cccc(Cl)c1 (centres undefined) [Bupropion hydrochloride] | 81.19 ± 0.62% |  |
| CN1CCC2(C)c3cc(O)ccc3N(C)C12 (single isomer, unassigned; (-)) [(-)-Eseroline, Fumarate salt] |  | 61.6% |
| CN1CCC2(C)c3cc(O)ccc3N(C)C12 (single isomer, unassigned; (-)) [(-)-Eseroline fumarate salt] | 140% |  |
| NCC(CC(=O)O)c1ccc(Cl)cc1 (centres undefined) | 86.2% |  |
| CN1CC[C@@]2(C)c3cc(O)ccc3N(C)C12 (single isomer, unassigned; (-)) [(-)-Eseroline fumarate] | 87.8% | 91% |
| CC(C)[C@]12O[C@H]1[C@@H]1O[C@]13[C@]1(O[C@H]1C[C@H]1C4=C(CC[C@@]13C)C(=O)OC4)[C@@H]2O | 0.053% |  |
| CC(=O)[C@H]1CC[C@H]2[C@@H]3CC[C@H]4C[C@H](O)CC[C@]4(C)[C@H]3CC[C@]12C [5alpha-Pregnan-3alpha-ol-20-one] | 95.7% |  |
| C=CCSSCC=C | 107% |  |
| CC(C)[N+](C)(CCC(C(N)=O)(c1ccccc1)c1ccccc1)C(C)C | 111% |  |
| CC(C)[N+](C)(CCC(C(N)=O)(c1ccccc1)c1ccccc1)C(C)C [Isopropamide iodide] | 102% |  |
| C#C[C@]1(O)CC[C@H]2[C@@H]3CCC4=CC(=O)CC[C@]4(C)[C@H]3CC[C@@]21C | 98.6% |  |
| C#C[C@]1(O)CC[C@H]2[C@@H]3CCC4=CC(=O)CC[C@]4(C)[C@H]3CC[C@@]21C [Ethisterone] | 80 ± 8.7% |  |
| COP(=S)(OC)Oc1ccc(SC)c(C)c1 | 57.9% |  |
| O=c1[nH]c2ccccc2n1CCCN1CCC(n2c(=O)[nH]c3cc(Cl)ccc32)CC1 [Domperidone] | 85.4 ± 28% |  |
| O=C([O-])c1ccccc1-c1c2cc(Br)c(=O)cc-2oc2[c]([Hg+])c([O-])c(Br)cc12.[Na+].[Na+].[OH-] [Merbromin] | 83.1% |  |
| O=C([O-])c1ccccc1-c1c2cc(Br)c(=O)cc-2oc2[c]([Hg+])c([O-])c(Br)cc12.[Na+].[Na+].[OH-] | 86.9% |  |
| COc1ccc(CC2c3cc(OC)c(OC)cc3CCN2C)cc1OC (centres undefined) [Laudanosine] |  | 75.5% |
| C=CCN1CC[C@]23c4c5ccc(O)c4O[C@H]2/C(=N/NC(=O)c2ccccc2)CC[C@@]3(O)[C@H]1C5 [Naloxone benzoylhydrazone] | 113% |  |
| CNC1(c2ccccc2Cl)CCCCC1=O (centres undefined) | 88.3% |  |
| CC(C)CC(N(C)C)C1(c2ccc(Cl)cc2)CCC1 (centres undefined) | 84.5% and 87.2% |  |
| CC(C)CC(N(C)C)C1(c2ccc(Cl)cc2)CCC1 (centres undefined) [Sibutramine] | 91.8 ± 24% |  |
| CC(C)CC(N(C)C)C1(c2ccc(Cl)cc2)CCC1 (centres undefined) [Sibutramine HCl] | 65.9% |  |
